Tested on: GBM-37
Assay: cDNA microarray transcriptome analysis
Type: cell-based, human
Conditions: GBM-37, 100 nM 3dc
Protocol: In addition, GBM-37 was treated with 100 nM of 3dc, and transcriptome changes were confirmed through cDNA microarray analysis.

FC(F)(F)c1ccc2c(c1)N(CCCCN1CCC(N3CCCC3)CC1)c1ccccc1S2 [3dc, 10-(4-(4-(pyrrolidin-1-yl)piperidin-1-yl)butyl)-2-(trifluoromethyl)-10H-phenothiazine]
genes down-regulated compared to the control group: 2979 genes
genes up-regulated compared to the control group: 70 genes

— patent US20230330095A1, “PHARMACEUTICAL COMPOSITION FOR ANTI-CANCER COMPRISING NUPR1 ISOFORM A INHIBITOR” (SEOUL NATIONAL UNIVERSITY R&DB FOUNDATION, priority 2022, published 2023)
